Hit rate of the full screen: of about 1,600 compounds, about 20 (1%) showed an effect of 50% or more. The list shows a part of the results.
system: T1, E. coli pLC1021 (luc-trpAt trans-translation reporter); parameters: species or system Escherichia coli pLC1021; luc-trpAt non-stop luciferase reporter; luminescence rises when trans-translation is inhibited; normalized to KKL-35 and DMSO; details: reporter signal, KKL-35 = 100%; rise means trans-translation inhibition; 2 h, 20 µM
T1 construct: pLC1021 luc-trpAt reporter strain
Protocol: The luciferase screen was performed as previously described ([16]). […] 48 µL of cells was transferred to white 96-well plates, and 2 µL DMSO or 20 µM compound, or 20 µM KKL-35 was added. Plates were sealed with adhesive film, vortexed gently to mix, and incubated at room temperature for 2 h. 50 µL Bright-Glo reagent (Promega, Madison, WI) was added to each well, and the plates were sealed with adhesive film, vortexed vigorously, and incubated for an additional 10 min at room temperature. Luminescence was measured at 560 nm using a SpectraMax i3 microplate reader and readings for each plate were normalized to the average of three KKL-35-treated wells (positive control) and three DMSO-treated wells (negative control) within the plate to correct for plate-to-plate and day-to-day variations. Results from at least two biological repeats were averaged, and GraphPad Prism was used to plot the data. We screened a library of 1,601 anti-tubercular small molecules for their ability to inhibit trans-translation using a luciferase reporter in Escherichia coli. In this luc-trpAt reporter, the firefly luciferase gene has a trpA transcriptional terminator before the stop codon, such that luciferase is translated from a non-stop mRNA ([16]). When trans-translation is active, the luciferase will be tagged and degraded, but when trans-translation is inhibited, active luciferase will accumulate, resulting in a luminescent signal when luciferin is added. Luciferase activity was measured after growth in the presence of compounds from the library at 20 µM, using the known trans-translation inhibitor KKL-35 as a positive control (Fig. 1A) ([16], [17]). Compounds with activity one standard deviation above the median were scored as positive (Fig. S1 and Table S1).

SMILES | % activation [%]
O=C(O)c1cn(-c2ccc(N3CCCC3)c(F)c2)c2c(F)c(F)c(F)cc2c1=O [KKL-1114] | 3
COc1cc2c(cc1NC(=O)Nc1ccc(Cl)cc1)oc1ccccc12 [KKL-0402] | 5
O=C(Nc1ccc(F)cc1)NC1CCCCCCC1 [KKL-1335] | 0
COc1ccc(OCC(=O)Nc2cccc(Cl)c2)cc1 [KKL-0787] | 0
COc1ccccc1C1(O)CCN(CC(O)c2ccc3ccccc3c2)CC1 (stereo not shown) [KKL-0688] | 3
c1ccc(Nc2nc(-c3ccccn3)cs2)cc1 [KKL-1622] | 0
C=CCn1c(-c2cccs2)nc2ccccc21 [KKL-1438] | 0
Cc1nc2ccc(C(=O)OCc3nnc(-c4ccccc4)o3)cc2nc1C [KKL-1299] | 0
O=C(Nc1ccc(Cl)c(C(F)(F)F)c1)c1csc2c1CCCC2 [KKL-1448] | 2
CCN(CC)c1ccc(-c2nn3c(-c4n[nH]c5c4CCC5)nnc3s2)cc1 [KKL-1714] | 1
CC(C)(c1ccccc1)c1ccc(OCC(O)CNC2CCN(Cc3ccccc3)CC2)cc1 (stereo not shown) [KKL-0808] | 0
CC(=O)Nc1ccc(Nc2cc(C(C)C)nc3c(-c4ccccc4)c(C)nn23)cc1 [KKL-0882] | 0
CCCOC(=O)CSc1nnc(-c2ccc(OC)cc2)o1 [KKL-1228] | 7
Cc1c(CNC(=O)c2cnn3c2NC(c2ccc(Br)cc2)CC3C(F)(F)F)cnn1C (stereo not shown) [KKL-0964] | 10
COC(=O)[C@@H](NC(=O)c1nc(N2CCCC2)nc2c1CCCC2)c1ccccc1 [KKL-1145] | 0
COc1cc(NC(=O)c2ccc3c(c2)OCCO3)ccc1NC(=O)c1ccccc1Cl [KKL-1054] | 3
Cc1ccc(-c2nn(-c3cccc(F)c3)cc2CNCc2[nH]nc3c2CCCCC3)o1 [KKL-0656] | 0
CN1CCN(c2cc(-c3ccc(F)cc3)nc(-c3ccncc3)n2)CC1 [KKL-1844] | 0
Cc1c(C)n(C2CCCC2)c2ncnc(OC3CCN(C(=O)C(C)c4ccccc4)CC3)c12 (stereo not shown) [KKL-0506] | 0
Clc1ccc(OCc2ccccc2Cl)c(CNC2CCCCC2)c1 [KKL-1221] | 0
Cc1ccc(Nc2ccccc2N)cc1 [KKL-0834] | 0
CCOC(=O)CCNC(=O)c1cc(COc2cc(C)c(Cl)c(C)c2)on1 [KKL-1113] | 0

SMILES | % activation [%]
c1ccc(CN2CCCC3(C2)NCCc2c3[nH]c3ccccc23)cc1 (stereo not shown) [KKL-0700] | 0
Cc1c(OC(C)C)ccc2c(-c3ccccc3)cc(=O)oc12 [KKL-1226] | 1
CCSc1nnc(NC(=O)c2ccc3ccccc3n2)s1 [KKL-0809] | 5
O=C(Oc1cccc2cccnc12)c1ccc(Cl)c(S(=O)(=O)N2CCOCC2)c1 [KKL-1082] | 4
O=C(Nc1nc(NC(=O)c2ccco2)n(-c2ccccc2)n1)c1ccccc1 [KKL-1005, N-(5-benzamido-2-phenyl-1,2,4-triazol-3-yl)furan-2-carboxamide] | 44
Cc1ccc(NC(=O)c2ccc(OCC(=O)OC3CCCCC3)cc2)cc1 [KKL-1469] | 11
O=C(c1cc(=O)c2ccccc2o1)N1CCc2c([nH]c3ccccc23)C1c1ccccc1F (stereo not shown) [KKL-0623] | 0
CC(=O)c1ccc(NC(=O)Nc2cc(OCC(F)(F)F)cc(OCC(F)(F)C(F)F)c2)cc1 [KKL-1332] | 0
O=C(c1cnn(C(=O)c2ccco2)c1)c1cc(F)ccc1O [KKL-1685] | 3
Cc1cccc(-c2ccc(NC(=O)C3CCN(C(=O)CCc4cnn(C)c4)CC3)cc2)c1 [KKL-1170] | 0
Cc1ccc2nc(Cl)c(CNCc3cccs3)cc2c1 [KKL-1741] | 0
Cc1ccc(NC(=O)C23CC4CCC(CC(C4)C2)C3)cc1 [KKL-1401] | 0
O=C(Oc1c(Cl)cc(Cl)c2cccnc12)c1ccccc1[N+](=O)[O-] [KKL-1418] | 90
CCc1ccc(OCC(=O)Nc2ccc(N3CCN(C(=O)c4cccs4)CC3)c(Cl)c2)cc1 [KKL-0752] | 0
CN(C)c1ccc(CNC23CC4CC(CC(C4)C2)C3)cc1 [KKL-0764] | 0
c1ccc2c(NC3C4CC5CC(C4)CC3C5)nc(N3CCOCC3)nc2c1 (stereo not shown) [KKL-0361] | 0
CSc1cccc(C(=O)Nc2nc(-c3ccccn3)cs2)c1 [KKL-1683] | 10
COCCCNC1=NN=C(c2cc(C)n(-c3ccccc3F)c2C)CS1 [KKL-0798] | 0
OCC#CCSc1nnc(-c2cccc3ccccc23)o1 [KKL-1198] | 1
COc1cccc(-c2ccccc2NC(=O)C2CCN(Cc3ccc(OC)c(C)c3)CC2)c1 [KKL-1151] | 0
Cc1cccc(-c2cccc(NC(=O)C3CCCN(C4CCSCC4)C3)c2)c1 (stereo not shown) [KKL-1159] | 2
CCOC(=O)c1cc(-c2ccccc2)sc1N=C(S)NC1CCN(Cc2ccccc2)CC1 [KKL-1339] | 0

Taken from above:
% activation [%], CN1CCN(c2cc(-c3ccc(F)cc3)nc(-c3ccncc3)n2)CC1 [KKL-1844] reads 0
% activation [%], C=CCn1c(-c2cccs2)nc2ccccc21 [KKL-1438] reads 0
% activation [%], Cc1cccc(-c2ccc(NC(=O)C3CCN(C(=O)CCc4cnn(C)c4)CC3)cc2)c1 [KKL-1170] reads 0

(cont.)

SMILES | % activation [%]
C=C(C)[C@@H]1CC=C(CN2CCC(O)(Cc3cc(-c4cccc(OC)c4)no3)CC2)CC1 [KKL-0638] | 1
CCC(=O)N1CCc2c([nH]c3ccccc23)C12CCN(Cc1ccccc1)CC2 [KKL-1236] | 1
Cc1ccc2c(C)nc(Nc3nc(O)c4ccccc4n3)nc2c1 [KKL-0675] | 1
O=C(c1ccco1)N(CCCn1ccnc1)c1nc2c(Cl)cccc2s1 [KKL-1707] | 0
O=C(Nc1nnc(-c2ccc(Cl)s2)o1)c1ccc(Cl)s1 [KKL-1762] | 0
O=C(CSc1nnc(-c2cccs2)o1)OC1CCCCC1 [KKL-1655] | 0
CCn1nc(C)cc1C(=O)N1CCc2c([nH]c3ccccc23)C1c1cc(F)ccc1F (stereo not shown) [KKL-1183] | 0
Cc1ccc(C2CC(C(F)(F)F)n3ncc(C(=O)NCc4ccc5c(c4)OCO5)c3N2)cc1 (stereo not shown) [KKL-1825] | 0
Cc1nc(C)c(-c2csc(Nc3ccc(Br)cc3)n2)s1 [KKL-0325] | 0
COc1ccc2[nH]c(CN3CCc4c([nH]c5ccccc45)C3C)cc2c1 (stereo not shown) [KKL-0517] | 5
COc1ccc2[nH]c(CN(CCCn3ccnc3)Cc3ccc(F)cc3)c(C)c2c1 [KKL-1041] | 16
CC(=O)CC1(OC(C)=O)C(=O)N(C)c2ccccc21 (stereo not shown) [KKL-1624] | 0
COc1ccc(NC(=O)N2CCCC(C(=O)c3cc(F)ccc3OC)C2)cc1Cl (stereo not shown) [KKL-0481] | 0
CC(C)CC(O)C1CCN(c2nncc(-c3cccc(F)c3)n2)CC1 (stereo not shown) [KKL-1161] | 0
N#Cc1cc2c(nc1SCC(=O)OCc1ccccc1)CCC2 [KKL-0607] | 0
CN(C)c1ccc(Nc2ncnc3ccc(Br)cc23)cc1 [KKL-1044] | 0
Cn1c(=O)c2c([S+](C)[O-])snc2n(C)c1=O (stereo not shown) [KKL-1817] | 0
OC(CN1CCC(O)(c2ccc(C(F)(F)F)cc2)CC1)c1ccc(Cl)cc1 (stereo not shown) [KKL-1042] | 9
COc1ccc(CN2CCC(c3cc4nc(C)cc(C(F)(F)F)n4n3)C2)c(OC)c1 (stereo not shown) [KKL-0537] | 0
Cc1ccc(C(C)C)c(OCCCCn2ccnc2)c1 [KKL-1083] | 11
Brc1ccc2ncnc(Nc3ccc(N4CCCC4)cc3)c2c1 [KKL-1293] | 0
CCOC(=O)c1cc(-c2csc(Nc3c(C)cc(C)cc3C)n2)on1 [KKL-1760] | 0

SMILES | % activation [%]
COc1cc(C(=O)N2CCc3c([nH]c4ccccc34)C2c2ccccn2)c2ccccc2n1 (stereo not shown) [KKL-1188] | 0
CC(=O)OC1CC2C(COC(=O)CC(C)C)=COC(OC(=O)CC(C)C)C2C1(O)CCl (stereo not shown) [KKL-1612] | 0
CCOC(=O)C1=Nc2ccccc2C1=[N+]=[N-] [KKL-0987] | 0
COc1ccc(CN2CCN(CC(O)Cn3c4ccccc4c4ccccc43)CC2)cc1 (stereo not shown) [KKL-1520] | 0
CN(C)CC(C)(C)CNc1cc(-c2ccccc2)nc2cc(-c3cccc(F)c3)nn12 [KKL-0523] | 0
CC1CCCN(CCC(=O)c2ccc(Br)cc2)C1 (stereo not shown) [KKL-0974] | 7
COc1ccc(CCN=C(S)N2CCN(C/C=C/c3ccccc3)CC2)cc1OC [KKL-1528] | 2
CC(C)C(=O)N1CCN(c2ccccc2NC(=O)c2ccc([N+](=O)[O-])o2)CC1 [KKL-1300] | 0
O=C1c2cccc3c([N+](=O)[O-])ccc(c23)C(=O)N1Cc1cccnc1 [KKL-0365] | 0
O=[N+]([O-])c1cnc(-c2nc3ccccc3[nH]2)s1 [KKL-1884] | 0
CC1CC(C)CN(C(=O)c2ccc(CN=c3c(N4CCCC4)c(O)c3=O)cc2)C1 (stereo not shown) [KKL-1229] | 6
COc1ccc2cc(-c3[nH]ncc3CNCc3ccc(C(F)(F)F)cc3)ccc2c1 [KKL-1118] | 0
COC(=O)C(C)Oc1ccc2c(=O)c(Oc3ccccc3Br)coc2c1 (stereo not shown) [KKL-1421] | 0
CCC(NC(=O)c1cnc(C(C)(C)C)nc1)c1ccc(F)cc1 (stereo not shown) [KKL-0932] | 5
CCOc1ccccc1CNc1ccc(C2c3ccsc3CCN2C(C)=O)cc1 (stereo not shown) [KKL-1040] | 0
COc1ccc(C)cc1NC(=O)c1ccc(Cc2ccc(C)cc2)o1 [KKL-1194] | 7
Cc1cc(OCC(=O)NCc2ccccc2)c2cc(Br)ccc2n1 [KKL-1832] | 6
COc1ccccc1-c1coc2cc(OCC(=O)OCc3ccccc3)ccc2c1=O [KKL-0913] | 0
COC(=O)C(CCSC)NC(=O)c1cc(COc2ccc(F)cc2Cl)on1 (stereo not shown) [KKL-0497] | 9

Source: publication PMC12548414
